From paper PMC5618690, “Structural and functional analysis of two small leucine-rich repeat proteoglycans, fibromodulin and chondroadherin” (Matrix Biology, 2017)
Results are given in words; binding and its absence hold for the method and conditions named. Values belong to the binder of their own block, whether it stands above or below them.

Tests used:
[1] = target: human chondroadherin (human) (UniProt O15335); assay: condition: injected at 10 mg/ml; peak protein concentration at least 50 μM; SEC-MALS; 10 mg/ml injected onto Superdex 75 10/30; 150 mM NaCl, 20 mM HEPES pH 7.5; 0.1 ml/min; peak protein concentration estimated at least 50 μM; both purified
[2] = target: human fibromodulin with ten N-terminal tyrosines mutated to serine (human) (UniProt Q06828); assay: as above

binding [1]: no binding
B1: human chondroadherin (protein, UniProt O15335 23-359)
chain: APLACPQNCHCHSDLQHVICDKVGLQKIPKVSEKTKLLNLQRNNFPVLAANSFRAMPNLVSLHLQHCQIREVAAGAFRGLKQLIYLYLSHNDIRVLRAGAFDDLTELTYLYLDHNKVTELPRGLLSPLVNLFILQLNNNKIRELRAGAFQGAKDLRWLYLSENALSSLQPGALDDVENLAKFHVDRNQLSSYPSAALSKLRVVEELKLSHNPLKSIPDNAFQSFGRYLETLWLDNTNLEKFSDGAFLGVTTLKHVHLENNRLNQLPSNFPFDSLETLALTNNPWKCTCQLRGLRRWLEAKASRPDATCASPAKFKGQHIRDTDAFRSCKFPTKRSKKAGRH

binding [2]: no binding
B2: human fibromodulin with ten N-terminal tyrosines mutated to serine (protein, UniProt Q06828 19-376)
chain: GALAQYEDDPHWWFHYLRSQQSTSSDPSDPSPSETSEPSPSGVDEGPASTSGSPSPPDPRDCPQECDCPPNFPTAMYCDNRNLKYLPFVPSRMKYVYFQNNQITSIQEGVFDNATGLLWIALHGNQITSDKVGRKVFSKLRHLERLYLDHNNLTRMPGPLPRSLRELHLDHNQISRVPNNALEGLENLTALYLQHNEIQEVGSSMRGLRSLILLDLSYNHLRKVPDGLPSALEQLYMEHNNVYTVPDSYFRGAPKLLYVRLSHNSLTNNGLASNTFNSSSLLELDLSYNQLQKIPPVNTNLENLYLQGNRINEFSISSFCTVVDVVNFSKLQVLRLDGNEIKRSAMPADAPLCLRLASLIEI
modifications: N-linked glycans at Asn127, Asn166, Asn201, Asn291
